Assay results as given in PubChem BioAssay AID1347426 (Functional Genomics Laboratory (NCATS/FGL), 2020).
The campaign covered roughly 31,000 sequences. About 1,400 (4.5%) were called active.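 Rule for the calls: active = median seed-adjusted z-score above 1 or below -1; inactive = the rest.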 The list shows a part of the results.

Assay: Novel Modifiers of Survival Motor Neuron (SMN) Protein: Gene Identification via Genome-wide siRNA Screen;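 note: luminescence tracks full-length SMN protein made from the SMN2 reporter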
Settings: HEK293T SMN2-luciferase reporter, siRNA knockdown, 72 h; actives lie on both sides
Procedure, shortened: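 Each of three siRNAs per gene is reverse-transfected (1 pmol) into reporter HEK293T cells whose luciferase output tracks SMN protein level. After 72 h culture, ONE-Glo luminescence is control-normalized, log10-transformed and MAD-standardized; Common Seed Analysis deprioritizes seed-driven hits.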

Sequence	median seed-adjusted z-score
GCCUAGAAUUUGUAUCCCATT against ATXN2	inactive: 0
GGAUCGUUUGGGAAGGUAUTT against PCDHB6	inactive: 0
GCAAGACGGUCAAAAAGGUTT against HTR1A	inactive: 0
CGUGAACAAUGCCUUCAAATT against ACOT11	inactive: 0.636
AGAUCGUCCUGACCUUUGATT against PRKACA	inactive: -0.137
GCAGUUCCAUGGUACACCATT against ASAH1	inactive: 0.421
CUGAGAAGAUAGAAGUUAATT against MRPL39	inactive: 0.355
GCCUGUAAGUUAUUAAAGATT against ARL4D	inactive: -0.523
CGCUGACAGGCUUACACUATT against DPYSL5	inactive: 0.0624
GCUCCGAUGAUGUAGUUGATT against NSUN5	inactive: 0.118
GCCUUGCUGGAUUGCCUAUTT against CARD18	inactive: 0.568
CCCUUAGACUCUAAGCCCATT against HSD17B14	inactive: 0.386
GAGAGAUUUUUGAGGUAUATT against IRAK3	inactive: 0.155
GCCCGGACAGUUUCGACUATT against RASL10A	inactive: 0.151
UGAUUACCAGAUGACCAAATT against ADA	inactive: -0.242
GGCAAAAACUAUACUCAAATT against MOBKL1A	inactive: 0.549
CCGAGUUCGUCAACCACUATT against ACVRL1	inactive: -0.361
GCUCAACAGUCCCUAGUUATT against RSC1A1	inactive: 0.438
AGUUGAACGAUCUCAAGAATT against TRIM31	inactive: -0.167
GGAGGUUUCUCAAGCCUCATT against SLC28A1	inactive: 0.129
GAAAGAACUUGGAAGGCAATT against TNP2	inactive: -0.346
GCCGUGCUGAAGGCUCUAATT against KCNE3	active: -1.33

Reprinted at random: six records from the list.
Sequence	median seed-adjusted z-score
GCUCAACAGUCCCUAGUUATT against RSC1A1	inactive: 0.438
GCCUGUAAGUUAUUAAAGATT against ARL4D	inactive: -0.523
GCCUUGCUGGAUUGCCUAUTT against CARD18	inactive: 0.568
GCUCCGAUGAUGUAGUUGATT against NSUN5	inactive: 0.118
GAAAGAACUUGGAAGGCAATT against TNP2	inactive: -0.346
CUGAGAAGAUAGAAGUUAATT against MRPL39	inactive: 0.355

Further entries follow:

Sequence	median seed-adjusted z-score
GCAAUGUGAGUGUCAUCUATT against MS4A8B	inactive: 0.207
GCACCGACUUUGAUACUGUTT against CABP7	inactive: -0.268
GGUACAACACUGUCCUGAATT against ALG12	inactive: -0.401
GGCCGAAUUUAUAAAGGAATT against CHI3L1	inactive: 0.145
GGACGACGACGAAUACAACTT against NKX6-2	inactive: 0.101
CCAGGAUGCACAUCCAGAATT against MXD3	inactive: 0.482
GAACUUCAAGGAACAUCAUTT against DHRS2	inactive: 0.35
GCUUUUAAGUCAUCCUCAATT against ZNF676	inactive: -0.499
AUACUGACUUCAUAGAAAATT against RGS2	inactive: 0.00236
GGGUGGAGACCUAAACUUUTT against ZNF524	inactive: 0.00173
AAACAAUGGUGGACGAACUTT against RAP2A	inactive: -0.727
CCCUGUGACCCGUUCCAUATT against SLC18A3	inactive: -0.392
CUUCGUUUCUGCGAACUAATT against CASP9	inactive: -0.0982
CGAAUCAUGAGAACUAAUATT against MMP27	inactive: -0.084
GAUCUUGGAUGGAUUGCUATT against OCA2	inactive: 0.457
GAUACUAUCGGGAUCAUAATT against LAMA3	inactive: 0.534
GGGAUAUGAUAGAUCCUUATT against CPO	inactive: 0.0875
AGAGUUCCUCAGUUUAAUATT against ANP32B	inactive: 0
GAAAAUUACUGGAAGAGAATT against KCNJ3	inactive: -0.0229
CGAACCACGUGUACCAAGATT against CST3	inactive: -0.188
GCAUUGCUCCAAAAUACGATT against PRPS1L1	inactive: 0
CCUGAUUUCUUGUGAUACATT against DNAJC24	inactive: -0.0166

Sequence	median seed-adjusted z-score
GCAGUUCAGGAGCUAGAAATT against PGPEP1	inactive: -0.0356
AAACAUGACUGGUACGUGUTT against ATP5J2	inactive: 0.00511
GAAGUACAGCUCAUGAAUATT against TESK2	inactive: 0
ACUUCAUAAUGGAGACCAATT against 1-Mar	inactive: 0
GGCUGAAACUCAAUAAGAATT against MSN	inactive: -0.736
CUGAUAAUGUGGGUCGAGATT against PLSCR2	inactive: 0
GCAGAGUCACUUUGACAAUTT against CHRNG	inactive: 0.221
GCCUUUCCAUUACCUAGCATT against KEL	inactive: 0
GUAUAGACUAUGAUCUAAATT against TRPC4	inactive: -0.272
AGGUGUACUUGAGCUGUGATT against IGFBP7	inactive: 0.116
CCAUCAUCCCUAAGCGAAUTT against REXO1	inactive: -0.748
GGCUCCUCCUUAGAGUUCATT against CASP6	inactive: 0.765
GAACGACACUCAUCACCAATT against CYP2D6	inactive: -0.0488
GCAUCACGCUCUCGAAGCATT against PTBP1	inactive: 0.578
GGCCUGUCAUUGUCAUACATT against ABCC12	inactive: 0.204
CCAGGUGAAAUGUCAACUATT against HERC5	inactive: -0.422
GAAUUGACAAUCUCAUAGATT against MCCC2	inactive: -0.0566
CCGCUGAUCCAGAUGCUUATT against HERC6	inactive: 0.324
CCUUAGAUACUUUUGGUAATT against PECR	inactive: -0.347
GAUGACUACUUAGCUCUAATT against FLJ90650	inactive: 0.427
GACUUGACCGAGCAAUAUATT against RBM4	inactive: 0.0148
GAAAAUUCAACGAGCCAAGTT against ACSM2A	inactive: -0.178

Sequence	median seed-adjusted z-score
CCGUCAGUGAGUUCCAUCATT against PAX3	inactive: 0.0223
GGAUCUUUCUAAACUGCGATT against DDX50	inactive: 0.359
UGACCUUUCCUAUCUAUAATT against MCART6	inactive: 0.714
GUGUCGCGCCCUACUGAAATT against GJC2	inactive: 0
GCCUUCCGAGCAUCACUUUTT against PGK2	inactive: -0.127
GGCUUUCAUCAGAACAAGATT against SNAI3	inactive: -0.195
GGCUUACCAGGAAGCAUUUTT against YWHAB	inactive: 0.579
CAAUGGCAAAGGGUACGCATT against EVX2	inactive: 0.181
GCGUGUCAGCUGUUCAUUATT against OSBPL5	inactive: 0.638
AACAAAAACUGAUGACCAATT against NARF	inactive: -0.346
CCAUCUCACUGCAAUGUUUTT against RPP30	inactive: -0.656
GCACCUGCACAUUUAAGAATT against TRIM22	inactive: 0.363
GAAUCUCUGUAGCCGAUGATT against CPA1	inactive: -0.187
CCAAGGACGUGGGCAACAUTT against RABIF	inactive: 0
CAUUCUCUAUGACAAGUUATT against CCT7	inactive: -0.246
AGAUUACCAGCAACAUGUUTT against PRSS1	inactive: -0.0208
AGAUGCACGAAGAAGCUUATT against ZNF99	inactive: 0.0778
GCAUCUGUCUUACCAGAAUTT against E2F7	inactive: -0.0972
GAGUCAGAGUUGGUAGAAATT against FPGT	inactive: 0.36
GGACCGGAGCAGUAUAGAATT against TRIM37	inactive: -0.108
GGCUUAUACAAUGUCAACATT against HOXA7	inactive: -0.129
CCAUCAGUGUGGAUCUGGATT against TBC1D1	inactive: -0.359

Some of the entries above in another layout.

| Sequence | median seed-adjusted z-score |
| --- | --- |
| GGAUCUUUCUAAACUGCGATT against DDX50 | inactive: 0.359 |
| UGACCUUUCCUAUCUAUAATT against MCART6 | inactive: 0.714 |

(continued)

Sequence	median seed-adjusted z-score
AUUAACAUGUGAUACCUUUTT against LILRA1	inactive: -0.231
CAACACCCAUGAGAACUAATT against MGC17403	inactive: 0.204
GUACGUGUGCGAAACCGAATT against TFAP2A	inactive: -0.384
GCAUGUCUUUUGACGUGAATT against ERCC5	inactive: -0.0811
CGCUAAAGCUGCACACUGATT against TRAF3	inactive: 0.731
GUGAUUAUAUGGUGAUAUATT against ADRA2B	inactive: 0.00853
GGAGUAACCUGGAUGAGGATT against C3	inactive: 0.0281
CAGUCUUGCUGCUAUCUAUTT against VIL1	inactive: 0.368
GCAUUGCAGGUGUGGACAATT against RAPSN	inactive: 0.143
GCCUGAAAGUCUCACCCUUTT against KHK	inactive: 0
GAACUGUCCCAGACCUUAATT against PRDM10	inactive: 0.344
GGAUCCAGAGCAUGAAUUATT against P2RX7	inactive: -0.527
ACAGCCGCAUGAACAAGGATT against B3GNT7	active: -1.05
GCACUGAUAUCAACCCUGATT against N6AMT1	inactive: 0.166
GCACUAAUGAAGACCCUAATT against PBK	inactive: -0.311
CGAAUCAGCAGGUUCCAAATT against CHD2	inactive: 0.422
GCACUGGUCCGCAUCAGUATT against TRIM46	inactive: 0.034
CGUUGGAUCAGACUCUUUUTT against SMYD5	inactive: -0.217
GCAAGAAGCCGGUAGUCUATT against CTRC	inactive: -0.104
GGACACUACUCUUACCGCATT against TEAD4	inactive: 0.0908
